Results published in article doi:10.1101/2024.01.10.574969.
No constants are given. Whether binding was seen depends on the method and setting. In cells and extracts the contact can be indirect. A result given as binding can be weak or reduced; the word gives no strength.

Chains of the proteins cited; added tags and fusions are not shown. Lines headed by an entry give the natural chain unless they say otherwise; changes in a name come on top.
UniProt Q9ULT6: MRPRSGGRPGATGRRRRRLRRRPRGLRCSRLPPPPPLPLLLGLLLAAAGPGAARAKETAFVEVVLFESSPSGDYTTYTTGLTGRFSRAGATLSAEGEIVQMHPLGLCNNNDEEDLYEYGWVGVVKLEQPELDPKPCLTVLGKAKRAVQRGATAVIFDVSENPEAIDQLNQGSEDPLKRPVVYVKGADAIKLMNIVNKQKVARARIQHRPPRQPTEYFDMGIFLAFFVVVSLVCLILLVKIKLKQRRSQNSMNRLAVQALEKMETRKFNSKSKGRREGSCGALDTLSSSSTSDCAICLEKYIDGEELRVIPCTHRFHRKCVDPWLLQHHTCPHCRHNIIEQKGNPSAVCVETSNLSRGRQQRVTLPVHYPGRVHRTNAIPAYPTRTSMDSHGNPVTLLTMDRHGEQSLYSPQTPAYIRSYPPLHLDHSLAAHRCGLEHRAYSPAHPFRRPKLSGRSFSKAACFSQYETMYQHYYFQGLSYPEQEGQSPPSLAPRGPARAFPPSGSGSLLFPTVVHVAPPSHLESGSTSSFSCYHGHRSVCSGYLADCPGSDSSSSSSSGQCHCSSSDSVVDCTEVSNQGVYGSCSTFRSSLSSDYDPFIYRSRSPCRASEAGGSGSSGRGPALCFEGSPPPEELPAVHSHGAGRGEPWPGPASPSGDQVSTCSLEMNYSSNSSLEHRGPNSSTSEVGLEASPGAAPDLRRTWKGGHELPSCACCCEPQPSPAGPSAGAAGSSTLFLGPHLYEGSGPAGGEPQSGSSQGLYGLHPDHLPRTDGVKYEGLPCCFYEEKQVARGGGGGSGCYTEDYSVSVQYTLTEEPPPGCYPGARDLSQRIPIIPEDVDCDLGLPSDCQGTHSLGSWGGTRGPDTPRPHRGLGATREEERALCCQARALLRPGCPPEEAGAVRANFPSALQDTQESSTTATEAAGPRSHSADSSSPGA

Target: EGFR (transfected HCT116 cells) (UniProt P00533)
Assay: proximity ligation; HCT116 cells co-transfected with Myc-ZNRF3ΔR and EGFR; Duolink In Situ Red; anti-EGFR (D38B1) rabbit and anti-Myc-tag (9B11) mouse antibodies; no primary antibody as negative control

Myc-ZNRF3ΔRING (from UniProt Q9ULT6) (enzyme)
binding: binds
